Here are results for two molecules from PMC3728344.

For one assay, the target named is Flag-Cep152. Briefly: co-IP; Flag IP: cell lysate with Flag M2 resin in lysis buffer (50 mM Tris HCl pH 7.4, 150 mM NaCl, 1 mM EDTA, 1% Triton X100) for 2 hours at 4°C; washed with PBS; Western blot.
For assay [1], the target named is MBP-XCep152 (Xenopus laevis). Briefly: pull-down; amylose resin bound to MBP-XCep152, incubated with Xenopus laevis cytostatic factor arrested egg extract (no centrosomes) containing in vitro translated 35S-labelled XCep63; autoradiography; only the target purified.
In assay [2] the target is MBP-XCep152 (Xenopus laevis). Briefly: pull-down; amylose resin bound to MBP-XCep152, incubated with in vitro translated 35S-labelled XCep63 without egg extract, in EB buffer (50 mM HEPES pH 7.5, 100 mM KCl, 2.5 mM MgCl2); autoradiography; only the target purified.

Results are given in words; binding and its absence hold for the method and conditions named. Binding seen in cells or lysates may run through a third protein. Binding can be weak; no strength is given.

B1: endogenous Cep63 (protein, UniProt Q96MT8 1-703)
chain: MEALLEGIQNRGHGGGFLTSCEAELQELMKQIDIMVAHKKSEWEGRTHALETCLKIREQELKSLRSQLDVTHKEVGMLHQQVEEHEKIKQEMTMEYKQELKKLHEELCILKRSYEKLQKKQMREFRGNTKNHREDRSEIERLTAKIEEFRQKSLDWEKQRLIYQQQVSSLEAQRKALAEQSEIIQAQLVNRKQKLESVELSSQSEIQHLSSKLERANDTICANELEIERLTMRVNDLVGTSMTVLQEQQQKEEKLRESEKLLEALQEEKRELKAALQSQENLIHEARIQKEKLQEKVKATNTQHAVEAIRPREESLAEKKYTSQGQGDLDSVLSQLNFTHTSEDLLQAEVTCLEGSLESVSATCKQLSQELMEKYEELKRMEAHNNEYKAEIKKLKEQILQGEQSYSSALEGMKMEISHLTQELHQRDITIASTKGSSSDMEKRLRAEMQKAEDKAVEHKEILDQLESLKLENRHLSEMVMKLELGLHEAKEISLADLQENYIEALNKLVSENQQLQKDLMNTKSQLEISTQMCKKQNDRIFKPTHSRTTEFKNTEFKPTHGQHRHDGIKTEHYKTDLHSPRGQASDSINPMSRVLSPLSPQISPCSSTRSLTSYSLCKTHSLPSALDTNEANFSDTMSESMNDQEEFISSCSLPVSPLGSIATRFLEEEELRSHHILERLDAHIEELKRESEKTVRQFTALK
Regarding B1, the binding entry in the assay with Flag-Cep152 was “binds”.

B2: 35S-XCep63 (protein, UniProt B9V5F5 1-649)
chain: MEALLQGLQRQDRMGALQDSCEAELQELMKQIDIMLDHKRSQWEAETETMKTRLELKEQELNCALDREERLNQEVRRLRQQLIQQEEETQNKTTQYEAQLSGFKEELNRLKKSYEKVQKKHLRSEMKAKAEEERSEVSRLTRRLEEFRQRSLDWEKQRLLYQQQLAGLEAQRKTLIEQTEMYQHQSHNRKQMLEQTSLVGRSELQNLSGQLHRANDSLCAKEEELETLKIQLRCAVEGQKRAEHETELSKQAVQALKEEKAELRATLQAHTEFLQGSRVQKHELLPEGYRGSEVLRENNSIRSVEERLQEMGQVGGETEVEAIRSKLSVSRMNEHRLQAEVTCLEDSVESVTSQCQLLAKELKGKEEYFHGVKEDHQKCLSENKKLKGQLSQAELTHKSVLDGMRKEISQLTQELHQRDIRMASSAGIDWERKIKAERQRAEREAAEHRMSLNALENLRQENCRLSELLQTQEPDVAQALVNLEQANQRLQRELLQTQEKLELIAQRRESEIQNAVDSISQELLNKQEQELRIMQERLKVYEQEMQTFRSQQDAASSGSSLESIFSEVWKEQATGSPISAASVDSAIEPVEDLASSLPVPPTSPANAVASRFLQEEEQRSHELLQRLNAHIEELKQESQRTVEHFTQAR
modifications: labelled with 35S methionine
Turning to B2, the binding entry in assay [1] and in assay [2] was “binds” each time.
